In doi:10.1101/2022.10.06.511211 one finds binding data, which are given here for 7 substances.

Protein sequences, listed by entry. Tags and fused reporters are not part of them. Residues count along the entry.
UniProt Q8VEK3: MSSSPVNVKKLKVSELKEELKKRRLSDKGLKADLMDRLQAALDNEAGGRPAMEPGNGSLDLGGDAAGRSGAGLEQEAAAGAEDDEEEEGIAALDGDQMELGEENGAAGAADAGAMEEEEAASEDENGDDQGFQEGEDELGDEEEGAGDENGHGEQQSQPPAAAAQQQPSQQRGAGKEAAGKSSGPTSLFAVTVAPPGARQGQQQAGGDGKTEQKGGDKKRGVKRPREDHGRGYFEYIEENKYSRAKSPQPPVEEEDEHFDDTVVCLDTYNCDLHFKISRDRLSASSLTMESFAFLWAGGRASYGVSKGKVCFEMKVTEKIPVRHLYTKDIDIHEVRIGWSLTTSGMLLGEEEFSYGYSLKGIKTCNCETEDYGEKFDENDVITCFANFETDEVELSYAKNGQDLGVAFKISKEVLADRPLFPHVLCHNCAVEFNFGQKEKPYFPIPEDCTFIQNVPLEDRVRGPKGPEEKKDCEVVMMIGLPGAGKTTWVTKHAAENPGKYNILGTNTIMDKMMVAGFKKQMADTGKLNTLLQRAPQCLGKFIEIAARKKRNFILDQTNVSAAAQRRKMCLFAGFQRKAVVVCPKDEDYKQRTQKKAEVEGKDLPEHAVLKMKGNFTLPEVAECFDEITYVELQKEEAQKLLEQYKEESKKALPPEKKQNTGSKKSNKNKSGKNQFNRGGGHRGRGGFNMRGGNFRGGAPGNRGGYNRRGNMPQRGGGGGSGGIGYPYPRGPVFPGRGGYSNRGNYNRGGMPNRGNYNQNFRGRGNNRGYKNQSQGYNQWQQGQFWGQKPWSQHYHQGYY
UniProt Q4ACU6: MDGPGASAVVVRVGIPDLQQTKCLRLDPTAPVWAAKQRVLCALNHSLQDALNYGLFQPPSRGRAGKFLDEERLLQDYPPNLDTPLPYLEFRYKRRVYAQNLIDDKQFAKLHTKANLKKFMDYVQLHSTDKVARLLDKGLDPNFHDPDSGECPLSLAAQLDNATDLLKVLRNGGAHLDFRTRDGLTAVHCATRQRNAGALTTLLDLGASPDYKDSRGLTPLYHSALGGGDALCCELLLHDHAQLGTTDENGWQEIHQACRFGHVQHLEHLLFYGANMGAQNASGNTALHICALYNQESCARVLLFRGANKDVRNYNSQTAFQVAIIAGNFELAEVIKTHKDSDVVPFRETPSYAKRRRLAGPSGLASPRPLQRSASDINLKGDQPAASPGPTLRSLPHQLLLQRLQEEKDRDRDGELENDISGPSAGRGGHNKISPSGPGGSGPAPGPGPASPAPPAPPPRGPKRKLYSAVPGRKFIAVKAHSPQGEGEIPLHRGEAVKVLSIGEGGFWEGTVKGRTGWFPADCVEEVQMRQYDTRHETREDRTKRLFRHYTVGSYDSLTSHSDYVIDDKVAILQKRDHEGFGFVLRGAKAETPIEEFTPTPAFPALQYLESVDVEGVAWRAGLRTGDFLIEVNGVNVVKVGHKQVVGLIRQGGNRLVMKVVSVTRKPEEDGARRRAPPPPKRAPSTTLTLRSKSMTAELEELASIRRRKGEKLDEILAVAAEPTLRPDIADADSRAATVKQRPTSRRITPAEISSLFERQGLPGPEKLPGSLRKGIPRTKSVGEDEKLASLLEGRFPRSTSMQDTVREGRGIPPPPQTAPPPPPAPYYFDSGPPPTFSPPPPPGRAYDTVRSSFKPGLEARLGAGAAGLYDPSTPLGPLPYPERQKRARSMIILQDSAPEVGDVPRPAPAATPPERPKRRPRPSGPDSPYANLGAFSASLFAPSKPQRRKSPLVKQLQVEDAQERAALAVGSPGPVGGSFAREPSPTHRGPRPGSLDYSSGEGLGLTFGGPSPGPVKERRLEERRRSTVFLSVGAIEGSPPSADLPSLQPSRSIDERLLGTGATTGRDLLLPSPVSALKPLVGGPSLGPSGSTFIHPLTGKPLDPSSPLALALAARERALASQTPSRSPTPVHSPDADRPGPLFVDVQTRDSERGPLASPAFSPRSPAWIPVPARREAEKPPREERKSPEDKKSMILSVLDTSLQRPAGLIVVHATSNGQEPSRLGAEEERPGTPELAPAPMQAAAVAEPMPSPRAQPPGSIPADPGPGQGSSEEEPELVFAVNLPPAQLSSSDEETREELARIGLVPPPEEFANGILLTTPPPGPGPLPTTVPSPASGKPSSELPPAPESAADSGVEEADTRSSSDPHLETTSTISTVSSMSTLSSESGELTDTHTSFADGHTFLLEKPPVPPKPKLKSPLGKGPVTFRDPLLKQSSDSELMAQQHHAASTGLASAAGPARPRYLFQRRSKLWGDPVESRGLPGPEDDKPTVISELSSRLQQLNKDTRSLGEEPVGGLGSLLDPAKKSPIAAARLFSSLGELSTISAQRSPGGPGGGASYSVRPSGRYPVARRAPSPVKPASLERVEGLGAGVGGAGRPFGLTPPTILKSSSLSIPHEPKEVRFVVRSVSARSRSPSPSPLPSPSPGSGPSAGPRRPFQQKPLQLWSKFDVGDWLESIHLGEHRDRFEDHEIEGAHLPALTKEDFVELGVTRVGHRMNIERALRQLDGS
UniProt Q00PI9: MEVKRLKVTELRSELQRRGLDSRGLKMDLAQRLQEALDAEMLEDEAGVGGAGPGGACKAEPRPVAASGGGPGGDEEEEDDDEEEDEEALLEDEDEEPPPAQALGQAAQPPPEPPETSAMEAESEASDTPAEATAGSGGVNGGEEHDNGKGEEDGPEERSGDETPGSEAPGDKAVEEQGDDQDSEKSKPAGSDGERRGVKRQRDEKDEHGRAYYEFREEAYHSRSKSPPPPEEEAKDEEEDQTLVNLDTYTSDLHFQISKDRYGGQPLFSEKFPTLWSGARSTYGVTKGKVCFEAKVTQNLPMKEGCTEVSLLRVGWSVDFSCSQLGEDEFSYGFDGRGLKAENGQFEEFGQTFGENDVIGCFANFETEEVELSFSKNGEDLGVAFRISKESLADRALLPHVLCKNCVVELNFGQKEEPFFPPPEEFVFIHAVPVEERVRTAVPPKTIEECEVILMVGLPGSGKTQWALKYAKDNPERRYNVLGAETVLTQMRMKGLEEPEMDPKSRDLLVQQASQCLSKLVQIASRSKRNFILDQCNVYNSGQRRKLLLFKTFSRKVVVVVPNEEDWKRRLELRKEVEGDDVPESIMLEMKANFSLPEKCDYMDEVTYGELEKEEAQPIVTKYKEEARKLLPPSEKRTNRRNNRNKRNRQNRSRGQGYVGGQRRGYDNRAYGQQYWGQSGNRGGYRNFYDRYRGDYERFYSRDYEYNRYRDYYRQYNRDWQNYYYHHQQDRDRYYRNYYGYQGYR
UniProt Q9Z0R4: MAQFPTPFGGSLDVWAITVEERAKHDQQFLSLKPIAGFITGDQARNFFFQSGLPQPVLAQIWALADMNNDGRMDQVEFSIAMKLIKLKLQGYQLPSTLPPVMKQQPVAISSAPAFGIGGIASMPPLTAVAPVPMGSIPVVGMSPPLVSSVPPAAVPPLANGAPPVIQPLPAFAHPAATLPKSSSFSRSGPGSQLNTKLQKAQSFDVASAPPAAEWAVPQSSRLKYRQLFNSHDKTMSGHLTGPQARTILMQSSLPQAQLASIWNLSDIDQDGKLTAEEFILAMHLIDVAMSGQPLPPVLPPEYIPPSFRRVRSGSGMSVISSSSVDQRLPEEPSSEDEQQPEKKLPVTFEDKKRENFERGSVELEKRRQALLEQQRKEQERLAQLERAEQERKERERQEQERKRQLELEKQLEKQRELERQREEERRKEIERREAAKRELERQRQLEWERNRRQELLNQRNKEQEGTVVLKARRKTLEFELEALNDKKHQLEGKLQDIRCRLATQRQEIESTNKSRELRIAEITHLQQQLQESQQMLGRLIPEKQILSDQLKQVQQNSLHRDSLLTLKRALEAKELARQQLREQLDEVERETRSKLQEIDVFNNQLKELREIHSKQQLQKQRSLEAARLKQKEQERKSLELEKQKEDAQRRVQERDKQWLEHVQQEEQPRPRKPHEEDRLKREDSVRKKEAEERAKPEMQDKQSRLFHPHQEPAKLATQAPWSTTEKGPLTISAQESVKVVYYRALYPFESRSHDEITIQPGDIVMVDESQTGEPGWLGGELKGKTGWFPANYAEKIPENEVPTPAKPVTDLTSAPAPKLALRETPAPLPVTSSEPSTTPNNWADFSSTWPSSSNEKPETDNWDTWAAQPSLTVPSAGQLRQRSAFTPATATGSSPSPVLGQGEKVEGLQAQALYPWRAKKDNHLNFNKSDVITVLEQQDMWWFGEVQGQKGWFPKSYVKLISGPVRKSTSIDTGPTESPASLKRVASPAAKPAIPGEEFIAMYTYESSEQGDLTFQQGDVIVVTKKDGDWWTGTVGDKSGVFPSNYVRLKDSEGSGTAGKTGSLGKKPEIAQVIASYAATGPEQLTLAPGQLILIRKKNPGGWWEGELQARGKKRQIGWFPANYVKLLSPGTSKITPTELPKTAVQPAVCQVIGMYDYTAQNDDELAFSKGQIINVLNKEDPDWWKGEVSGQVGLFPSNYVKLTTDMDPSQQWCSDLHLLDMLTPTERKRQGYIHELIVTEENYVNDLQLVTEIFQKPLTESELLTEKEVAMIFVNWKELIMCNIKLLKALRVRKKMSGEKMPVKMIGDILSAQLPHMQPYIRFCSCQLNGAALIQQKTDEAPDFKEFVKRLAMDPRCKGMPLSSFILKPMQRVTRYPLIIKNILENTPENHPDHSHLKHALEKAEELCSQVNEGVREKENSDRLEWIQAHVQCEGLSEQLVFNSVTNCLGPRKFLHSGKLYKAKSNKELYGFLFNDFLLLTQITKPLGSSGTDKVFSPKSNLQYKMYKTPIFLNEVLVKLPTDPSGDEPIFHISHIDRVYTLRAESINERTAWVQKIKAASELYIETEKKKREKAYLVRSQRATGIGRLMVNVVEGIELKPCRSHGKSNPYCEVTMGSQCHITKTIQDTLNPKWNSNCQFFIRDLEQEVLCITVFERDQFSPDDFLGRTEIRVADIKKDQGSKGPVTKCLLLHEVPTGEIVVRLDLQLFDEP
UniProt Q8CIN4: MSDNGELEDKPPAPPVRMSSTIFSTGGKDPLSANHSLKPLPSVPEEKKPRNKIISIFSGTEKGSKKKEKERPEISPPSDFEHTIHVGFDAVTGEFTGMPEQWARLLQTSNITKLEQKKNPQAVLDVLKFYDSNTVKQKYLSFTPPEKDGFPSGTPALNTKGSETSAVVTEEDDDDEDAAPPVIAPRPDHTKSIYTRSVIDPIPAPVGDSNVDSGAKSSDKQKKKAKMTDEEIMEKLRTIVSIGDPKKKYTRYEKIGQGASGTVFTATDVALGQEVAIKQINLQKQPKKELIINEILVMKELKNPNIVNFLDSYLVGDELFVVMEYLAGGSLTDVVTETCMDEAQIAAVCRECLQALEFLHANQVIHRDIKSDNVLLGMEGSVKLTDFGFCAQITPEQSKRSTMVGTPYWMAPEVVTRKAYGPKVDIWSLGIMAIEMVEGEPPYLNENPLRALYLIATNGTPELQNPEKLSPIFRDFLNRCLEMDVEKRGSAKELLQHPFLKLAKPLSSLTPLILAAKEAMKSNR
UniProt Q9CZN4, residues 24-424: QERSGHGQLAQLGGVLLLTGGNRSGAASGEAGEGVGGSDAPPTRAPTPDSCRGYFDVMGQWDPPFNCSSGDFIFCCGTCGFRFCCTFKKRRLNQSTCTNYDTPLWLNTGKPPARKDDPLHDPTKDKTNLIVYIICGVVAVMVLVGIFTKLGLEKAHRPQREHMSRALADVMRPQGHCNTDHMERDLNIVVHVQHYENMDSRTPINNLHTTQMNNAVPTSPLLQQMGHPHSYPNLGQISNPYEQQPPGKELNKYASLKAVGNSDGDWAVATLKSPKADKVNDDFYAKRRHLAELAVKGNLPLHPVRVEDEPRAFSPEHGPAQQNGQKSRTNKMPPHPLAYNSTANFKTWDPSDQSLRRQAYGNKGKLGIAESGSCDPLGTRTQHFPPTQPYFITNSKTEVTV

These are yes or no findings as the source states them, for the method shown. In cells and extracts the contact can be indirect. A yes stands for co-enrichment or nearness to the bait. Other partners may have been found. For part of these data: Sequences can lack the tags named with a protein.

Holding throughout (experiment): proximity labelling
Assay [1] concerns the target T1, Anks1b (mouse, endogenous, TurboID-HA knock-in) (mouse (endogenous in forebrain)) (UniProt Q8BIZ1).
T1 sequence: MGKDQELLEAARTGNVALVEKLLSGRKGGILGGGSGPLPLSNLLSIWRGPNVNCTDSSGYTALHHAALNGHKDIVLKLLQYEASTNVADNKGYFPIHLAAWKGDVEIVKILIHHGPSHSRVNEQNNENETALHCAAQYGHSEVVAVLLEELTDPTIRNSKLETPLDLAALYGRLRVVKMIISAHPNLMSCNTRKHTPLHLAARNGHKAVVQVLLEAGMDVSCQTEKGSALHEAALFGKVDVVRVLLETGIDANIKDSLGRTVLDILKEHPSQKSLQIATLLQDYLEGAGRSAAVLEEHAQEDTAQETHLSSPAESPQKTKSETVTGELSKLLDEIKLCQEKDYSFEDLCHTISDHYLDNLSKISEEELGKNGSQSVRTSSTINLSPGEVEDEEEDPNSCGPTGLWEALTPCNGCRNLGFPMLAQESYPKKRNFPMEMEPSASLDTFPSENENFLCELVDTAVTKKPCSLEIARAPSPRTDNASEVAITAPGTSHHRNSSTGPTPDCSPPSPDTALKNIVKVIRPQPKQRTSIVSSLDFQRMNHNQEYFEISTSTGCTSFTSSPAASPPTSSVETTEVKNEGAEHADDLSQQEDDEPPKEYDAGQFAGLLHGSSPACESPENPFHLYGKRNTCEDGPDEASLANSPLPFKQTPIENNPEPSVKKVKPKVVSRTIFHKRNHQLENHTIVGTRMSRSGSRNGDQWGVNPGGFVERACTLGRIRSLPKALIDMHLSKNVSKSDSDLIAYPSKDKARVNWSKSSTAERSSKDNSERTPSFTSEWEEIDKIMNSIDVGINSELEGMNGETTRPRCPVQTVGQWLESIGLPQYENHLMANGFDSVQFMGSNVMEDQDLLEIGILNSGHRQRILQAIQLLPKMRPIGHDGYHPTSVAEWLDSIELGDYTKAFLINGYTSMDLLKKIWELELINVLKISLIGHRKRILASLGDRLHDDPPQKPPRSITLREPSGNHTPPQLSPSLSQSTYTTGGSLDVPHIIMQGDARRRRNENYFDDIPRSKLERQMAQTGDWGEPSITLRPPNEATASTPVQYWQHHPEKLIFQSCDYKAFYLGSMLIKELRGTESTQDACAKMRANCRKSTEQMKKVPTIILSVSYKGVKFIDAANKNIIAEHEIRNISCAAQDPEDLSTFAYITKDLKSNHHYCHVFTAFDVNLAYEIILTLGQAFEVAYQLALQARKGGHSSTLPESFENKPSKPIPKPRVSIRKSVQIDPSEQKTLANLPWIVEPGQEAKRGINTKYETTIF

For assay [2], the target named is Syngap1 (mouse, endogenous, TurboID-HA knock-in) (mouse (endogenous in forebrain)) (UniProt F6SEU4).
The target in assay [3] is Hnrnpu (mouse, endogenous, TurboID-HA knock-in) (mouse (endogenous in forebrain)) (UniProt Q8VEK3).
The target in assay [4] is Ank3 (mouse, endogenous, TurboID-HA knock-in) (mouse (endogenous in forebrain)) (UniProt G5E8K5).
For assay [5], the target named is Shank3 (mouse, endogenous, TurboID-HA knock-in) (mouse (endogenous in forebrain)) (UniProt Q4ACU6).
For assay [6], the target named is T2, Syngap1:1-744 (truncated at exon 13, TurboID-HA fusion) (mouse (endogenous in forebrain)) (UniProt F6SEU4).
T2 sequence: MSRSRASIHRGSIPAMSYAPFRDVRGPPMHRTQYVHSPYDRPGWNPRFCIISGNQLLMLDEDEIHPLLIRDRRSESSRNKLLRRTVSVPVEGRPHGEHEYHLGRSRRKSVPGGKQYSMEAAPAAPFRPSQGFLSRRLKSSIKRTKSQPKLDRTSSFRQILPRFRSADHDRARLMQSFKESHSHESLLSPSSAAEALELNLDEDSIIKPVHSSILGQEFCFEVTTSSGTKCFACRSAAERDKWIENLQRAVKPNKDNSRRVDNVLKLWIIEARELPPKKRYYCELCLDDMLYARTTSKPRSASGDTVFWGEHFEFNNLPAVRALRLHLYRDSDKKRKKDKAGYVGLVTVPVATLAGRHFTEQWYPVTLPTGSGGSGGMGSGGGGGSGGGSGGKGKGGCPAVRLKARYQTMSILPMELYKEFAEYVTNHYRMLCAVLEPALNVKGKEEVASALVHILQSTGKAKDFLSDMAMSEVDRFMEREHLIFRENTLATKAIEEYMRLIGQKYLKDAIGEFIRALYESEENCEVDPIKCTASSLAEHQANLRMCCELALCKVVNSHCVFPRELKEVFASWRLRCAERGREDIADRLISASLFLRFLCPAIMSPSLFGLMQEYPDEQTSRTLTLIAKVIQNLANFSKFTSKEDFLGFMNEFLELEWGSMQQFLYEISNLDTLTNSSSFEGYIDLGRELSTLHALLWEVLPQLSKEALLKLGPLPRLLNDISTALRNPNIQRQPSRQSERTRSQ

As for “Dyrk1a (from UniProt Q61214 1-763) (enzyme)”, the binding result in assay [1] and in assay [2] was “binds” throughout.
Regarding Hnrnpul2 (from UniProt Q00PI9 1-745), the binding entry in assay [3] is on record as “binds”.
Consider Itsn1 (from UniProt Q9Z0R4 1-1714), for which the binding entry in assay [4] and in assay [5] was “binds” each time.
In the case of Mical3 (from UniProt Q8CJ19 1-1993), the binding result in assay [4] is “binds”.
With “Ntrk3 (from UniProt Q6VNS1 32-825) (receptor)”, the binding entry in assay [1] and in assay [2] was “binds” in each case.
“Pak2 (from UniProt Q8CIN4 1-524) (enzyme)”: the binding result in assay [1] and in assay [2] was “binds” throughout.
As to Shisa9 (from UniProt Q9CZN4 24-424), the binding result in assay [2] and in assay [6] was “binds” throughout.
